{
  "source": "paper PMC5814800",
  "key": {"[1]": {"target": "T1, ϕC31 IntD477V fused to T18 (Streptomyces phage ϕC31) (UniProt Q9T221)", "T1 sequence": "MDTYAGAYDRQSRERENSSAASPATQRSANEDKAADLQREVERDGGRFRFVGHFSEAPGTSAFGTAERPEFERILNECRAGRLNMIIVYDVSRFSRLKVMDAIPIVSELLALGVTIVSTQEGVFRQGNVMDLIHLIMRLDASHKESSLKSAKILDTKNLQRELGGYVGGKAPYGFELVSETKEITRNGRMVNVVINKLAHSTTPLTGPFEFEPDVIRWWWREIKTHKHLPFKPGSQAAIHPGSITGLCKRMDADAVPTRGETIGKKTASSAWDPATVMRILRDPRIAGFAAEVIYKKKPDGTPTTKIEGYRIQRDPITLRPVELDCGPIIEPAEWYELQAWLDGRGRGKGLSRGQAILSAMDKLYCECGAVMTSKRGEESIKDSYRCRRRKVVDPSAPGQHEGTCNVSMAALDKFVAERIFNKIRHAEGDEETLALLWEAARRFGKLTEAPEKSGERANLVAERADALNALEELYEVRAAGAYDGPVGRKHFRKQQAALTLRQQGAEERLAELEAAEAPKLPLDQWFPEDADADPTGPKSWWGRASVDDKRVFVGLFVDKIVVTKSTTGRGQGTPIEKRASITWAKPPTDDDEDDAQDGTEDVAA", "assay": "two-hybrid; bacterial two-hybrid in E. coli BTH101; signal quantified by β-galactosidase assay (ONPG, ΔOD420/min/ml) of cultures grown 16 h at 30°C with IPTG"}, "[2]": {"target": "T2, ϕC31 IntI582V fused to T18 (Streptomyces phage ϕC31) (UniProt Q9T221)", "T2 sequence": "T1 sequence with V477D, I582V", "assay": "two-hybrid; bacterial two-hybrid in E. coli BTH101; signal quantified by β-galactosidase assay (ONPG, ΔOD420/min/ml) of cultures grown 16 h at 30°C with IPTG"}},
  "note": "Positions count from the first letter of the chain named. Results are given in words; binding and its absence hold for the method and conditions named. Binding calls can cover weak binding; strength is not graded here. Sequences can lack the tags named with a protein.",
  "data": [
    {"substance": "T25-ϕC31 gp3 (wild type) fusion protein (Streptomyces phage ϕC31)", "values": [
      {"measurement": "binding", "setting": "[1]", "value": "binds"},
      {"measurement": "binding", "setting": "[2]", "value": "binds"}
    ]}
  ]
}
